The supplement of paper PMC10060354, “Discovery of a small molecule ligand of FRS2 that inhibits invasion and tumor growth” (Cellular Oncology, 2022)
Single values are uncertain, as repeats are few or missing.

Sequences of proteins named here, by UniProt entry; tags and fusion partners are left off. A change or cut given only in a name is not applied to a line headed by its entry.
UniProt Q9H6E5: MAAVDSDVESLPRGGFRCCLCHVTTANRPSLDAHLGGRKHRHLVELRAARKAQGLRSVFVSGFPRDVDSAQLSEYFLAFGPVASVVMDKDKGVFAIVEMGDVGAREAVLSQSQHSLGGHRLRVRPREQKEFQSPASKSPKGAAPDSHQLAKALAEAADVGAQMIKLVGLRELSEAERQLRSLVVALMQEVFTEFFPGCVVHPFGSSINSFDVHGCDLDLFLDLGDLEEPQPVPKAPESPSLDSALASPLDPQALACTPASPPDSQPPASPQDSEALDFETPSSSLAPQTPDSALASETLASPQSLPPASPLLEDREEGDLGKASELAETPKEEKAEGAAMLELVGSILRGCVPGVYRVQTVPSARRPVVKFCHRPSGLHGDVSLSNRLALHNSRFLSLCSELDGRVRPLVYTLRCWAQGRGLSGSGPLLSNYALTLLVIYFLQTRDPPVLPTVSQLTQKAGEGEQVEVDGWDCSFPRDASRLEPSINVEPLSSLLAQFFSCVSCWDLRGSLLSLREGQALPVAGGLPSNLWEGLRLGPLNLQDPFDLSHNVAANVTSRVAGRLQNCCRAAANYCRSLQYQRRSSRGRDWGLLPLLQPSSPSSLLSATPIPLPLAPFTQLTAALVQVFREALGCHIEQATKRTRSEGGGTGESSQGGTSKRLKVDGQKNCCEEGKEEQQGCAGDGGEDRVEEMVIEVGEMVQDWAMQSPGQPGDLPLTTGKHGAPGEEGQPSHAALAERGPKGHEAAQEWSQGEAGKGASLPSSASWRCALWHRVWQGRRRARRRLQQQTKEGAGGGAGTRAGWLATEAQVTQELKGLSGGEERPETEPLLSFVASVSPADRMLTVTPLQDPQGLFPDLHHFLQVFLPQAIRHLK
UniProt Q9NP31, whole entry, looked up: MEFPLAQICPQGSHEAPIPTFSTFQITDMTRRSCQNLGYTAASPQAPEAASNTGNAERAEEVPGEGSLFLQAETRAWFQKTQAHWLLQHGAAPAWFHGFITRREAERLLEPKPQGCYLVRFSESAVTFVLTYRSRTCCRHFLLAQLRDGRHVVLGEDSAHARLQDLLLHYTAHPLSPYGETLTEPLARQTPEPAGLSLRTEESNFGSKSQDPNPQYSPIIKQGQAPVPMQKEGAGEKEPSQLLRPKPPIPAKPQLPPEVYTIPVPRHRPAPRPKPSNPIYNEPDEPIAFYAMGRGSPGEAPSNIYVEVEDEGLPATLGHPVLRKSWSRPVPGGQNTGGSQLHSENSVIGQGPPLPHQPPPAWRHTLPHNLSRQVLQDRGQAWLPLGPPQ
UniProt P62068, whole entry: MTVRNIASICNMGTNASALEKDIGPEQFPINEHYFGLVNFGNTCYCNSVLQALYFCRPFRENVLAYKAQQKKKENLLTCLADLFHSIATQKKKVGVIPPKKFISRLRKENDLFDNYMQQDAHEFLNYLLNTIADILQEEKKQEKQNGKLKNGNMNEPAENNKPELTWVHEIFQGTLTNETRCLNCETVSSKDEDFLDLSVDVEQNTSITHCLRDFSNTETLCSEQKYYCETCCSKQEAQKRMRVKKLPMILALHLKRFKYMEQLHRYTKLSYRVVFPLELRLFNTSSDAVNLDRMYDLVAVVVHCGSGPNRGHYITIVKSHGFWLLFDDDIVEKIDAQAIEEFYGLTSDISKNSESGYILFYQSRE
UniProt O15460: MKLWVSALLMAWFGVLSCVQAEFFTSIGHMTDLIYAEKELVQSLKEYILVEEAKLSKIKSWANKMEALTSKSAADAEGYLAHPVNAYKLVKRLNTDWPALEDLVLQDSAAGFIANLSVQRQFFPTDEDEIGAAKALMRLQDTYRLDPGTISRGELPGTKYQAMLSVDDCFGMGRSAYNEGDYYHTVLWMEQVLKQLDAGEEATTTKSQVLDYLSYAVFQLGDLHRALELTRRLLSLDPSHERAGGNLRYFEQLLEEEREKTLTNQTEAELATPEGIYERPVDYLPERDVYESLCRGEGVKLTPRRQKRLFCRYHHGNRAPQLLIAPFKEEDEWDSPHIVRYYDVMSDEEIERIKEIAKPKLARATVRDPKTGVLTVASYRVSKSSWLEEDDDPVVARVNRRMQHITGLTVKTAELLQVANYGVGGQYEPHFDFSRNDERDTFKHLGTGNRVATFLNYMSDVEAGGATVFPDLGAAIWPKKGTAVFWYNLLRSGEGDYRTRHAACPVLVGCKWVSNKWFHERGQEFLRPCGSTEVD
UniProt Q8TDD1, whole entry: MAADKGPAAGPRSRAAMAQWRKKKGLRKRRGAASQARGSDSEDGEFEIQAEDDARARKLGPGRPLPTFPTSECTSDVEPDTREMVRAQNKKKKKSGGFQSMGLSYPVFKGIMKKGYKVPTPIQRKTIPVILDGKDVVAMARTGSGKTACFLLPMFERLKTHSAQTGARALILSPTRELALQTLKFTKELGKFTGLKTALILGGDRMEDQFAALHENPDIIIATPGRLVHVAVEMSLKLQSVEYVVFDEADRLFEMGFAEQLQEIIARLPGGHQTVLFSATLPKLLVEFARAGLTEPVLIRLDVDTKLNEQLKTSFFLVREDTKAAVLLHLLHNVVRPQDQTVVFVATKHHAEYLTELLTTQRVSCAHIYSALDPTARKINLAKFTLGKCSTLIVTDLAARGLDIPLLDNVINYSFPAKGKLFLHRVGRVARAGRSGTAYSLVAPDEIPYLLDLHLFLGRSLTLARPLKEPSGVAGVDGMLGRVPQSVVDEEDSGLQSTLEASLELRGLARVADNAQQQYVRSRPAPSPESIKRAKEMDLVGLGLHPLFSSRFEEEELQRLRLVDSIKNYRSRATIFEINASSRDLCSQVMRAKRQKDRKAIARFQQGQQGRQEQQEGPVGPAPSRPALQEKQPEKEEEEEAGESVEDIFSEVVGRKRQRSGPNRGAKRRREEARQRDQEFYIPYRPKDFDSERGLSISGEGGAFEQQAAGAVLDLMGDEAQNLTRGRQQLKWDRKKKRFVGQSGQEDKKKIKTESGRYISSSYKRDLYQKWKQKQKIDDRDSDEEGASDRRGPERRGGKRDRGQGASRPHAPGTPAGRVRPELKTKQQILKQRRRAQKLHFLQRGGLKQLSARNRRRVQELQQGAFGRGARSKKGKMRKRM
UniProt Q9H1J7: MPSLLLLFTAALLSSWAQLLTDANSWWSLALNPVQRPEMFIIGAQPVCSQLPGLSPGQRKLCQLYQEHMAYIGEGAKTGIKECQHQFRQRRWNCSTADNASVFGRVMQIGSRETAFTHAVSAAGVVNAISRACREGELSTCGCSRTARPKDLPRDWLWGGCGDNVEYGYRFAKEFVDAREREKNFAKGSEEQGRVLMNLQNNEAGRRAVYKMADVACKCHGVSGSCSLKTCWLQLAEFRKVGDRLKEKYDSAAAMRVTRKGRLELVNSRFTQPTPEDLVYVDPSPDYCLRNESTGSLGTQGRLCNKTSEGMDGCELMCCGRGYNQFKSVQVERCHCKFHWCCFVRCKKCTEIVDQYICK
UniProt Q9H4M9: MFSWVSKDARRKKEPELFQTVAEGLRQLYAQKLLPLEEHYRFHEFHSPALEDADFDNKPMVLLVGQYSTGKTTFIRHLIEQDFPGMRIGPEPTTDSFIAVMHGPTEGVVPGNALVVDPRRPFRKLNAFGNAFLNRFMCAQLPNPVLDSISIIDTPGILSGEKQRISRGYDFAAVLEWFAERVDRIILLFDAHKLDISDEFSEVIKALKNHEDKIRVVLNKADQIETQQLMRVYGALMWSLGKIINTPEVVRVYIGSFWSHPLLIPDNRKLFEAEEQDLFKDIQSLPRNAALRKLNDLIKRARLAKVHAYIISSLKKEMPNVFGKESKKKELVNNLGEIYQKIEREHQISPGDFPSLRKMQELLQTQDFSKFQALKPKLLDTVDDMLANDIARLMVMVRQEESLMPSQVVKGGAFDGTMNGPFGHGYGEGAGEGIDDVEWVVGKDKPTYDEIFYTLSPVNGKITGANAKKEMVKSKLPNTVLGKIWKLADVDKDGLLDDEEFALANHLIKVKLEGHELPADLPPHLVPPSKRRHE
UniProt P53805: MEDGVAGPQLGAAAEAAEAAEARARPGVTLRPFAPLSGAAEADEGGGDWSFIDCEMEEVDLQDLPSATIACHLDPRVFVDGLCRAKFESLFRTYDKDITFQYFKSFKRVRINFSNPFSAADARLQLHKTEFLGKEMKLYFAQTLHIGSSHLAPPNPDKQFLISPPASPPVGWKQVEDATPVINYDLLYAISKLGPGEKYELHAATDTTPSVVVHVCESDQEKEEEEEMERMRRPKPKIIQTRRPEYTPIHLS
UniProt Q58FF8, whole entry: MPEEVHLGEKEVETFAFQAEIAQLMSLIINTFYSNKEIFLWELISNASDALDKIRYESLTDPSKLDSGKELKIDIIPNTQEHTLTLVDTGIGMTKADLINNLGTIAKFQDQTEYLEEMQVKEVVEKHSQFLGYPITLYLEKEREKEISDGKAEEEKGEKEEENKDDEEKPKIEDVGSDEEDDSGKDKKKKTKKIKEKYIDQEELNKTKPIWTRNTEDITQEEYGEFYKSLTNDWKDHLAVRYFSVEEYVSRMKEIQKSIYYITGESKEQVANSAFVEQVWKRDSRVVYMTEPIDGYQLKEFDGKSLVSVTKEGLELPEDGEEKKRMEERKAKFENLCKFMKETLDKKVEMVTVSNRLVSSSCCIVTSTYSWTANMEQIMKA
UniProt Q8NE86: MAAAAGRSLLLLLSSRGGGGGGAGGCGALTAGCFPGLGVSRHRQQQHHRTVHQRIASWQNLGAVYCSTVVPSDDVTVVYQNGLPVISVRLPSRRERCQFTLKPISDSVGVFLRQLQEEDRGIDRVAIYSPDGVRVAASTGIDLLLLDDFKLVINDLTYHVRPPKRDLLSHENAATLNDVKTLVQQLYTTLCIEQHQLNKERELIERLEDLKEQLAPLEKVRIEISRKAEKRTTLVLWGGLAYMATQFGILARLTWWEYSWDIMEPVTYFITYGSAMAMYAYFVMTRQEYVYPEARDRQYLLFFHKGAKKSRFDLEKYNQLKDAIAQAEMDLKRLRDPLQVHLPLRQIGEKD
UniProt Q96CS2: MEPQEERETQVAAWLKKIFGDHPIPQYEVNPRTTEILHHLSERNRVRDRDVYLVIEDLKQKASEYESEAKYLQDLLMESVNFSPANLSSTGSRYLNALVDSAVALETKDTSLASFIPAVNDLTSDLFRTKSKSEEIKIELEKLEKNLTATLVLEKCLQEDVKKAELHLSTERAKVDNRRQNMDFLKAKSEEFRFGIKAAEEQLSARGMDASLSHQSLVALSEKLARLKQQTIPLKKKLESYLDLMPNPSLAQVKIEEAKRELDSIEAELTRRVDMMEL
UniProt Q9Y2Z2: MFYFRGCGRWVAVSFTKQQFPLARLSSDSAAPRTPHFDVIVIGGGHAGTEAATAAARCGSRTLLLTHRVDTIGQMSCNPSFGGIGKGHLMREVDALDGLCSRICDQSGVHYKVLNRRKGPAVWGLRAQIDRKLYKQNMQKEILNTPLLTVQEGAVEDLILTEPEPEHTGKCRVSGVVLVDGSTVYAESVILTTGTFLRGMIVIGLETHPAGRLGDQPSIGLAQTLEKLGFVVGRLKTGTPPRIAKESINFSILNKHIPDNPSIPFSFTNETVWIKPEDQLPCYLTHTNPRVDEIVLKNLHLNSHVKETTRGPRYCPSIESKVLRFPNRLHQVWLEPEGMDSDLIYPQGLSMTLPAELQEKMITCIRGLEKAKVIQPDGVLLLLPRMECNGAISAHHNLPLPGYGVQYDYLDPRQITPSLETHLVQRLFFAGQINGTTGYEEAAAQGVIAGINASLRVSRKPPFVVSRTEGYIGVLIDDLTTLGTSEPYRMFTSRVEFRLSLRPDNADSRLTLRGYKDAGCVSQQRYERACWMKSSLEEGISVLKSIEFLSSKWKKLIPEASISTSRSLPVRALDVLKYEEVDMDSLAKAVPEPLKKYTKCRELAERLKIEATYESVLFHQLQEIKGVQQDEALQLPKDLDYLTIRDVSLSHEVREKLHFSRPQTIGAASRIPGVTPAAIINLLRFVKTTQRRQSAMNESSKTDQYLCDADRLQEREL
UniProt O75348, whole entry: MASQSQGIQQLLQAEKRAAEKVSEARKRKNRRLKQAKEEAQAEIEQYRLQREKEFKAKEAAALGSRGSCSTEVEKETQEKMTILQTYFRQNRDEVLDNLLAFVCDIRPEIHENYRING
UniProt P61960, whole entry: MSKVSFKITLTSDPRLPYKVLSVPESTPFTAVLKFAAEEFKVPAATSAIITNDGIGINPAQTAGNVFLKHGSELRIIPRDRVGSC
UniProt O75663: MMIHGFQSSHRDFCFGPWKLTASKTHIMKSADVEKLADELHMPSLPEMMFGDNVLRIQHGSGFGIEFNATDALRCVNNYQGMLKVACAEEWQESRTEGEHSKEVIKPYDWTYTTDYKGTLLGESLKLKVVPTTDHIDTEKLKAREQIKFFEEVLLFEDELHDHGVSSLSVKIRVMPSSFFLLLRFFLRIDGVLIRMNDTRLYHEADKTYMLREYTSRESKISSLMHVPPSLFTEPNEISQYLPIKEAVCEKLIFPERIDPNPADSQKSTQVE
UniProt Q7Z5G4, whole entry: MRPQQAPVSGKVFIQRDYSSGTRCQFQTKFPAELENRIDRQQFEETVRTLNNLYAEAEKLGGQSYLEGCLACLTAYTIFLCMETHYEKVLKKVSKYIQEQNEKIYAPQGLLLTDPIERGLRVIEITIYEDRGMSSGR
UniProt Q9NPE3: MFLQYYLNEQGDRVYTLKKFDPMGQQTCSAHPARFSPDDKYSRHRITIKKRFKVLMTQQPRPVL

Compound: [O-][N+](C(C1=C(C(O)=C2)NC(C(C=C3)=CC=C3Cl)C4C1C=CC4)=C2Cl)=O
Test: melting temperature shift (compound 7 minus DMSO); higher = compound stabilises the protein
Details: 10 µM
Description: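 Thermal proteome profiling (TMT mass spectrometry) in intact DAOY medulloblastoma cells or DAOY lysates treated with 10 µM compound 7 or DMSO, heated at 10 temperatures from 40.5 to 73.8 °C for 3 min. Melting curves were fitted with the Bioconductor TPP package, and the melting point difference between compound and vehicle is reported per protein (single curve per condition).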

[1] = system: DAOY cell lysate, treatment time: 20 min, 4 °C
[2] = system: intact DAOY cells, treatment time: 90 min, 37 °C

Target | melting temperature shift [1] [°C] | melting temperature shift [2] [°C]
UniProt Q8WV24 | -0.585 | 0.209
TUT1 (UniProt Q9H6E5) | 1 | -3.95
MYH10 (UniProt P35580) | -0.523 | -0.0588
TIMM44 (UniProt O43615) | 0.714 | 0.042
UniProt P78559 | -0.00323 | 0.266
SET (UniProt Q01105) | -2.1 | 1.84
UniProt Q9NP31 | 0.121 | –
PTGS2 (UniProt P35354) | – | -0.144
UniProt Q96L73 | – | 0.664
FAM3C (UniProt Q92520) | 1.73 | 0.823
UniProt P62068 | 0.583 | 0.652
PGRMC1 (UniProt O00264) | 1.95 | –
FLYWCH2 (UniProt Q96CP2) | 4.9 | –
CSTF2T (UniProt Q9H0L4) | -0.768 | -3.11
RRP12 (UniProt Q5JTH9) | -0.562 | 1.18
P4HA2 (UniProt O15460) | 1.47 | 0.654
UniProt P04275 | – | -1.44
PHF6 (UniProt Q8IWS0) | 0.771 | 0.382
UniProt Q9UN81 | 0.321 | 2.74
SURF6 (UniProt O75683) | 0.633 | 2.1
WDHD1 (UniProt O75717) | -0.807 | -0.503
TFAM (UniProt Q00059) | 2.79 | 0.14
UniProt Q8N680 | 3.12 | –

Taken from the listing (2 entries):
Target | melting temperature shift [1] [°C] | melting temperature shift [2] [°C]
UniProt P04275 | – | -1.44
PHF6 (UniProt Q8IWS0) | 0.771 | 0.382

Remaining list, next part:

Target | melting temperature shift [1] [°C] | melting temperature shift [2] [°C]
VPS26B (UniProt Q4G0F5) | -0.164 | 0.395
DDX54 (UniProt Q8TDD1) | 0.32 | –
UniProt Q86SJ2 | 0.681 | 0.915
HS2ST1 (UniProt Q7LGA3) | 1.74 | 0.132
DDOST (UniProt P39656) | 1.29 | -0.426
UniProt Q9H1J7 | – | -4.99
PYCRL (UniProt Q53H96) | -0.634 | 0.532
UniProt Q8NFD5 | -0.532 | 0.228
UniProt Q96M86 | – | 0.367
CPSF7 (UniProt Q8N684) | 0.0055 | –
RCCD1 (UniProt A6NED2) | – | -0.483
IGF2BP1 (UniProt Q9NZI8) | 0.115 | 0.0738
DRG1 (UniProt Q9Y295) | -0.26 | -0.203
GTF3C1 (UniProt Q12789) | -0.969 | 1.64
EHD1 (UniProt Q9H4M9) | -0.63 | -1.65
UniProt P53805 | -0.588 | –
CDK5RAP3 (UniProt Q96JB5) | 0.579 | -0.81
UBA2 (UniProt Q9UBT2) | -0.484 | 0.116
DDX1 (UniProt Q92499) | -0.403 | 0.0441
UniProt Q58FF8 | – | -0.438
UniProt P0CAP2 | -1.5 | 0.514
UniProt Q13367 | – | -1.48
MCU (UniProt Q8NE86) | 2.06 | -0.877

Whole records as entered above. Order of values: melting temperature shift [1] [°C]	melting temperature shift [2] [°C]
DDOST (UniProt P39656) as listed: 1.29	-0.426
PYCRL (UniProt Q53H96) as listed: -0.634	0.532
EHD1 (UniProt Q9H4M9) as listed: -0.63	-1.65
CPSF7 (UniProt Q8N684) as listed: 0.0055	–

Continuation.

Target | melting temperature shift [1] [°C] | melting temperature shift [2] [°C]
UniProt P52435 | -1.38 | –
HARS (UniProt P12081) | -0.592 | -1.53
HAUS1 (UniProt Q96CS2) | -1.04 | -0.0536
SRGAP2 (UniProt O75044) | 0.000481 | -1.14
UniProt P62491 | 0.64 | 2.38
HEATR5B (UniProt Q9P2D3) | -0.375 | 0.328
PPP2R1B (UniProt P30154) | 0.208 | 0.31
UniProt Q96SB3 | – | 0.55
PPWD1 (UniProt Q96BP3) | 0.0244 | 1.19
BZW1 (UniProt Q7L1Q6) | -0.705 | –
CAPN2 (UniProt P17655) | -0.203 | -0.218
UniProt Q9BXP2 | 0.427 | 0.385
GCLM (UniProt P48507) | -0.299 | 0.157
RETSAT (UniProt Q6NUM9) | -0.0101 | 0.908
MTO1 (UniProt Q9Y2Z2) | 3.17 | –
DMAP1 (UniProt Q9NPF5) | -3.63 | –
COG3 (UniProt Q96JB2) | -0.187 | -0.337
SPG21 (UniProt Q9NZD8) | -0.0497 | 0.558
TXNDC12 (UniProt O95881) | 0.299 | 0.11
PLOD1 (UniProt Q02809) | 0.967 | 0.519
ATP6V1G1 (UniProt O75348) | -0.461 | –
UFM1 (UniProt P61960) | -0.952 | 2.35
PSMA3 (UniProt P25788) | – | -0.179

Target | melting temperature shift [1] [°C] | melting temperature shift [2] [°C]
KANK1 (UniProt Q14678) | -0.721 | 0.585
TRIP11 (UniProt Q15643) | 0.676 | 0.528
SERF2 (UniProt P84101) | -4.62 | –
ANKRD27 (UniProt Q96NW4) | -0.0497 | –
SEC24C (UniProt P53992) | -0.464 | 0.0933
TIPRL (UniProt O75663) | 0.0587 | 0.146
PPIL4 (UniProt Q8WUA2) | -0.357 | -0.274
TIA1 (UniProt P31483) | 0.0782 | -0.041
TARS (UniProt P26639) | -0.659 | 0.911
NT5DC1 (UniProt Q5TFE4) | -0.543 | -0.505
GOLGA7 (UniProt Q7Z5G4) | 0.761 | 1.39
UniProt P0CG22 | – | -0.278
ATP5H (UniProt O75947) | 0.813 | -2.08
IGF2BP2 (UniProt Q9Y6M1) | -0.508 | 0.188
MUL1 (UniProt Q969V5) | 0.588 | 0.513
CTNNAL1 (UniProt Q9UBT7) | 0.68 | –
NOP10 (UniProt Q9NPE3) | 0.487 | –
CPPED1 (UniProt Q9BRF8) | – | -0.542
NUP50 (UniProt Q9UKX7) | -0.229 | –
SRC (UniProt P12931) | -2.42 | -2.04
YIPF3 (UniProt Q9GZM5) | 1.47 | -3.2
